Measured values taken from the supplement of paper PMC5407854, “Inhibitor of ppGalNAc-T3-mediated O-glycosylation blocks cancer cell invasiveness and lowers FGF23 levels” (eLife, 2017).
The list shows a part of the results. Small differences around the control level are noise.

test system: ppGalNAc-T3 sensor; experiment: T3 sensor activation Q score (MG/GFP ratio z-score vs DMSO controls) (SD units); higher = more sensor activation (inhibition of ppGalNAc-T3 glycosylation); details: HEK293 sensor cells; 10 µM; 6 h
Procedure: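 Cells were treated with compound at 10 uM for 6 h, then MG/GFP ratio was read by flow cytometry (10,000 cells per well, duplicate wells). Q = (R - R_neg)/SD_neg relative to DMSO vehicle controls; the signal rises when the glycosyltransferase is inhibited.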

Compound | T3 sensor activation Q score
COc1ccc(CC(N)=O)cc1OC | -0.825
O=[N+]([O-])c1ccccc1CN1CCN(c2ccc(F)cc2)CC1 | 0.12
COc1ccc(CN2CCN(CCO)CC2)cc1Br | -0.09
COc1cc(OC)c(CN2CCN(c3ccccc3)CC2)cc1Br | 0.74
Oc1c(Cl)cc(-c2cc(Cl)c(O)c(Cl)c2)cc1Cl | -0.59
Cc1ccc(C)c(N2CCN(Cc3ccccc3)CC2)c1 | -0.235
COc1cccc(CN2CCN(c3ccccc3Cl)CC2)c1 | -0.15
Cc1ccc(CN2CCN(C)CC2)cc1 | 1.55
CC(=O)c1ccc(N2CCN(Cc3ccc(Br)cc3)CC2)cc1 | -0.15
O=[N+]([O-])c1ccc(N2CCN(Cc3c(F)cccc3F)CC2)cc1 | -0.395
COc1ccccc1N1CCN(Cc2ccc(Cl)cc2)CC1 | 0.32
C=CCOc1ccccc1CN1CCN(c2ccccc2F)CC1 | 0.355
COc1ccc(CCNC2C3CC4CC(C3)CC2C4)cc1OC (stereo not given) | 0.875
O=c1[nH]c2c(c(=O)n1C1CCCCC1)CCC2 | -0.035
CN1CCN(Cc2ccc[nH]2)CC1 | 0.015
COc1cccc(CN2CCN(c3ccc(Cl)cc3)CC2)c1OC | 0.275
Fc1cccc(CN2CCN(c3ccccc3)CC2)c1 | -0.4
COc1cc(C)c(CN2CCN(c3ccc(F)cc3)CC2)cc1C | 0.9
COc1ccccc1N1CCN(Cc2cc(C)ccc2C)CC1 | 0.325
O=C1CC(=O)N(c2ccc(Br)cc2)C(=O)N1 | 0.15

Compound | T3 sensor activation Q score
CCN1CCN(Cc2cccc(F)c2)CC1 | -0.065
CC(C)c1ccc(CN2CCN(C)CC2)cc1 | -0.15
O=[N+]([O-])c1ccc(N2CCN(Cc3cc(F)ccc3F)CC2)cc1 | 0.71
CCN1CCN(Cc2c(Cl)cccc2Cl)CC1 | 0.29
O=C1NC(=O)C(Cc2ccc(F)cc2)C(=O)N1 | -1.27
CN1CCC(N2CCOCC2)CC1 | 0.47
O=[N+]([O-])c1ccc(CN2CCN(c3cccc(Cl)c3)CC2)cc1 | 0.14
CC(C)N1CCN(Cc2ccccc2Cl)CC1 | -0.09
Cc1ccccc1CN1CCN(c2ccccc2Cl)CC1 | -0.31
Cc1cc(Br)c2[nH]cc(CCN)c2c1 | 0.05
COc1cccc(CN2CCN(c3cccc(Cl)c3)CC2)c1OC | -0.015
CN1CCN(Cc2cc3c(cc2[N+](=O)[O-])OCO3)CC1 | -0.055
NCCc1c[nH]c2ccc(F)cc12 | -0.305
CCN1CCN(Cc2cc(OC)c(OC)cc2[N+](=O)[O-])CC1 | -0.635
O=c1cccc2n1C[C@H]1C[C@H]2CN(Cc2cccc(F)c2)C1 | 0.145
CCN1CCN(Cc2ccc(C)cc2C)CC1 | -0.04
O=C(CN1CCCCC1)c1ccccc1 | 0.315
COc1ccccc1N1CCN(Cc2ccc(C)cc2)CC1 | -0.01
Cc1cccc(N2CCN(Cc3ccccc3[N+](=O)[O-])CC2)c1C | 0.115
Fc1ccc(CN2CCN(c3ccccc3)CC2)cc1 | -0.38

A run of entries from further up, as a working copy:
Compound | T3 sensor activation Q score
Oc1c(Cl)cc(-c2cc(Cl)c(O)c(Cl)c2)cc1Cl | -0.59
Cc1ccc(C)c(N2CCN(Cc3ccccc3)CC2)c1 | -0.235
COc1cccc(CN2CCN(c3ccccc3Cl)CC2)c1 | -0.15
